# Record: PubChem BioAssay AID1259405 (NCATS, 2018)
# Test: 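Silenced genes that increase secreted GFP made by CHO cells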 (primary screen)
# Cells: Chinese hamster CHO-K1 ovary cells with stable secreted eGFP expression
# Knock-down reagent: single siRNA against mouse genes, 0.8 pmol siRNA per well (2 µl of 400 nM stock)
# Time to read-out: 3 days
# Measurement: 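Per-well intracellular GFP measured by laser scanning cytometry, plus viability from ATP luminescence, each relative to plate median of non-targeting control wells, in %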
# Direction: GFP, % of control: higher = more GFP per well, higher productivity; viability (ATP), % of control: higher = more viable cells (more ATP)
# Call rule: 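Called active when intracellular GFP, relative to negative control, is at or above 120%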
# The deposit covers about 50,000 reagents; shown is a part drawn at random. Over the whole deposit, about 4,000 (8%) were called active. 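Mouse siRNA library applied to hamster cells; one well for each siRNA.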 Reagents against one gene are numbered here.
The opening 6 entries, ahead of the listing:
gene,siRNA no.,"GFP, % of control","viability (ATP), % of control",Outcome
Tax1bp3,1,92.9,90.5,inactive
Tax1bp3,2,45.5,47,inactive
Tax1bp3,3,68.6,47.2,inactive
Hcst,1,55.6,75.3,inactive
Hcst,2,81.6,106,inactive
Hcst,3,146,86.1,active

The list itself, repeating the preview:
gene,siRNA no.,"GFP, % of control","viability (ATP), % of control",Outcome
Tax1bp3,1,92.9,90.5,inactive
Tax1bp3,2,45.5,47,inactive
Tax1bp3,3,68.6,47.2,inactive
Hcst,1,55.6,75.3,inactive
Hcst,2,81.6,106,inactive
Hcst,3,146,86.1,active
Inpp4b,1,51.5,76,inactive
Inpp4b,2,74.2,46,inactive
Sde2,1,56.8,46.1,inactive
Sde2,2,72.2,85.2,inactive
Sde2,3,87.9,83.4,inactive
Nrk,1,79,76.6,inactive
Psmb11,1,146,122,active
Psmb11,2,180,53.4,active
Psmb11,3,128,89.8,active
Abhd18,1,54.4,96.5,inactive
Abhd18,2,68.2,52.4,inactive
Abhd18,3,75.4,104,inactive
Gja8,1,102,56,inactive
Gja8,2,56.9,61.7,inactive
Gja8,3,71.9,123,inactive
Zfp467,1,62.3,87.8,inactive
Zfp467,2,109,89.9,inactive
Zfp467,3,68.7,91.2,inactive
Gpr132,1,104,90,inactive
Gpr132,2,72.9,68.7,inactive
Gpr132,3,79,73,inactive
Csn3,1,45.6,58.5,inactive
Csn3,2,201,67.3,active
Csn3,3,120,131,active
Rufy1,1,123,85.2,active
Rufy1,2,103,78,inactive
Rufy1,3,71.2,68.2,inactive
Cgas,1,67.6,50.7,inactive
Cgas,2,82.4,83.6,inactive
Cgas,3,52.7,57,inactive
Tinf2,1,78,82.6,inactive
Tinf2,2,68.2,115,inactive
Tinf2,3,64.3,72.4,inactive
Or8c13,1,83.2,43.2,inactive
Or8c13,2,62.2,66.1,inactive
Or8c13,3,90.5,28.6,inactive
Tmem134,1,63.9,50.5,inactive
Tmem134,2,28,41.7,inactive
Tmem134,3,138,94.5,active
Tmem107,1,80.9,68.5,inactive
Tmem107,2,209,69,active
Tmem107,3,85.4,80.3,inactive
Tmem107,4,57.4,80.9,inactive
Tmem107,5,70.2,100,inactive
Tmem107,6,84.9,114,inactive
Ccr6,1,68.4,67.8,inactive
Ccr6,2,67.1,65.5,inactive
Ccr6,3,81.6,73.3,inactive
Fbxo38,1,60.8,77,inactive
Fbxo38,2,105,94.6,inactive
Fbxo38,3,104,66.7,inactive
